Source: article PMC8571522, “siRNA screening identifies METTL9 as a histidine Nπ-methyltransferase that targets the proinflammatory protein S100A9” (The Journal of Biological Chemistry, 2021)
These are yes or no findings as the source states them, for the method shown. In cells and extracts the contact can be indirect. Some binding calls cover weakened binding; strength is not graded here. Tags and fused reporters may be left off the sequences shown.

The chains behind the UniProt entries cited, without tags or fusion partners. Where a name states a change or a piece, a line headed by the entry shows the natural chain unless it says otherwise. Residues count along the entry.
UniProt Q9EPL4, residues 19-318: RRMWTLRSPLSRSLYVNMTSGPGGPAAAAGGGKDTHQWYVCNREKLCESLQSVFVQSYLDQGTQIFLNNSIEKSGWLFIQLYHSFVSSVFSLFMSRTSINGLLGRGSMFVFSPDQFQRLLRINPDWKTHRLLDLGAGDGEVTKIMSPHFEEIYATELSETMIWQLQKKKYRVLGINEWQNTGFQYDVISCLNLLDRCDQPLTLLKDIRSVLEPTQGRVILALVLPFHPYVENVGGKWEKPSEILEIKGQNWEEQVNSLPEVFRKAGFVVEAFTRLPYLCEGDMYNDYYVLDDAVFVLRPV

B1: Flag-tagged mouse S100A9 (protein, UniProt P31725 1-113)
chain: MANKAPSQMERSITTIIDTFHQYSRKEGHPDTLSKKEFRQMVEAQLATFMKKEKRNEALINDIMEDLDTNQDNQLSFEECMMLMAKLIFACHEKLHENNPRGHGHSHGKGCGK

Assays:
[1] = target: T1, Flag-tagged mouse S100A9 (mouse) (UniProt P31725); assay: co-IP; HEK293T cells transiently expressing Flag-S100A9 together with METTL9 (WT)-HA or METTL9 (ΔSP)-HA; lysis buffer 20 mM Hepes-KOH pH 7.9, 150 mM NaCl, 0.1% Triton X-100, 0.1 mM EDTA; precipitated with ANTI-FLAG M2 Affinity Gel, blot with anti-Flag and anti-HA; normal mouse IgG as negative control
T1 sequence: B1 chain

[2] = target: T2, GST-fused mouse S100A8 (mouse) (UniProt P27005); assay: pull-down; GST or GST-S100A8 immobilised on glutathione beads, mixed for 3 h at 4 °C with whole-cell lysates of HEK293T cells expressing Flag-mS100A9 (cells transfected beforehand with control or METTL9 siRNA); blot with anti-Flag; only the target purified
T2 sequence: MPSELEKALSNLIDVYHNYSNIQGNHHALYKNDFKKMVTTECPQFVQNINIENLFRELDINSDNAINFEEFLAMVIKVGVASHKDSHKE

Row | Molecule | binding [1] | binding [2]
1 | METTL9ΔSP-HA, deletion mutant of mouse METTL9-HA lacking the signal peptide (from UniProt Q9EPL4 19-318) (domain or fragment) | binds | 
2 | B1 |  | binds
